This test deals with T1, REG3B (rat, AR42J cells) (rat (endogenous in AR42J)) (UniProt P25031).
T1 sequence: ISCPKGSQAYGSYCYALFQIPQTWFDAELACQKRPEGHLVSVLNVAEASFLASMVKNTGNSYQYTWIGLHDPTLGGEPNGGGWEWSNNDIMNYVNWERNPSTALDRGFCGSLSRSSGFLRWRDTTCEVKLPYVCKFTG
Put plainly: co-IP; total lysates (2 mg, pre-cleared) incubated overnight at 4 °C with anti-REG3B antibody (20 μg/mL), Protein-G agarose beads; eluates blotted for EXTL3; mouse primary acinar cells and AR42J.

No constants are given. Whether binding was seen depends on the method and setting. In cells and extracts the contact can be indirect. A result given as binding can be weak or reduced; the word gives no strength.

Consider “Exostosin-like glycosyltransferase 3 (EXTL3), rat (AR42J cells) (receptor)”, for which the binding entry is “binds”.

These data come from paper PMC8184755.
